Reference: patent publication US20230227838A1, “ENHANCED CELL SURVIVAL AGAINST BIOTIC AND ABIOTIC STRESSES THROUGH SALICYLICK ACID-INDUCED NPR1 CONDENSATES” (priority 2020, published 2023)

B1: AT2G21470 (protein, UniProt Q9SJT1 2-700, looked up)
SUMO-activating enzyme …: ATQQQQSAIKGAKVLMVGAGGIGCELLKTLALSGFEDIHIIDMDTIEVSNLNRQFLFRRSHVGQSKAKVARDAVLRFRPNINIRSYHANVKNPEFDVDFFKQFDVVLNGLDNLDARRHVNRLCLAADVPLVESGTTGFLGQVTVHIKGKTECYECQTKPAPKTYPVCTITSTPTKFVHCIVWAKDLLFAKLFGDKNQDNDLNVRSNNSASSSKETEDVFERSEDEDIEQYGRKIYDHVFGSNIEAALSNEETWKNRRRPRPIYSKDVLPESLTQQNGSTQNCSVTDGDLMVSAMPSLGLKNPQELWGLTQNSLVFIEALKLFFAKRKKEIGHLTFDKDDQLAVEFVTAAANIRAESFGIPLHSLFEAKGIAGNIVHAVATTNAIIAGLIVIEAIKVLKKDVDKFRMTYCLEHPSKKLLLMPIEPYEPNPACYVCSETPLVLEINTRKSKLRDLVDKIVKTKLGMNLPLIMHGNSLLYEVGDDLDDIMVANYNANLEKYLSELPSPILNGSILTVEDLQQELSCKINVKHRFFSEILNPVLNSVWFLIILPSTFPKLFHFTESRNQDGLSLDIILGFSNVTIRRVLTMFETGRRLTHPLLILFCHREEFDEEKEPEGMVLSGWTPSPATNGESASTSNNENPVDVTESSSGSEPASKKRRLSETEASNHKKETENVESEDDDIMEVENPMMVSKKKIRVE
B2: AT1G76680 (protein, UniProt Q8LAH7 1-372, looked up)
12-oxophytodienoate reductase …: MENGEAKQSVPLLTPYKMGRFNLSHRVVLAPLTRQRSYGNVPQPHAAIYYSQRTTPGGFLITEATGVSDTAQGYQDTPGIWTKEHVEAWKPIVDAVHAKGGIFFCQIWHVGRVSNSGFQPNGKAPISCSDKPLMPQIRSNGIDEALFTPPRRLGIEEIPGIVNDFRLAARNAMEAGFDGVEIHGANGYLIDQFMKDTVNDRTDEYGGSLQNRCKFPLEIVDAVAKEIGPDRVGIRLSPFADYMESGDTNPGALGLYMAESLNKYGILYCHVIEARMKTMGEVHACPHTLMPMRKAFKGTFISAGGFTREDGNEAVSKGRTDLVAYGRWFLANPDLPKRFQVDAPLNKYDRPTFYTSDPVVGYTDYPFLESTA
B3: AT2G43820 (protein, UniProt O22822 1-449, looked up)
UDP-glycosyltransferase 74F2: MEHKRGHVLAVPYPTQGHITPFRQFCKRLHFKGLKTTLALTTFVFNSINPDLSGPISIATISDGYDHGGFETADSIDDYLKDFKTSGSKTIADIIQKHQTSDNPITCIVYDAFLPWALDVAREFGLVATPFFTQPCAVNYVYYLSYINNGSLQLPIEELPFLELQDLPSFFSVSGSYPAYFEMVLQQFINFEKADFVLVNSFQELELHENELWSKACPVLTIGPTIPSIYLDQRIKSDTGYDLNLFESKDDSFCINWLDTRPQGSVVYVAFGSMAQLTNVQMEELASAVSNFSFLWVVRSSEEEKLPSGFLETVNKEKSLVLKWSPQLQVLSNKAIGCFLTHCGWNSTMEALTFGVPMVAMPQWTDQPMNAKYIQDVWKAGVRVKTEKESGIAKREEIEFSIKEVMEGERSKEMKKNVKKWRDLAVKSLNEGGSTDTNIDTFVSRVQSK
B4: AT5G40760 (protein, UniProt Q9FJI5 1-515, looked up)
Glucose-6-phosphate …: MGSGQWHVEKRSTFRNDSFVREYGIVPETGCLSIIVLGASGDLAKKKTFPALFNLYRQGFLNPDEVHIFGYARTKISDEELRDRIRGYLVDEKNAEQAEALSKFLQLIKYVSGPYDAEEGFQRLDKAISEHEISKNSTEGSSRRLFYLALPPSVYPSVCKMIKTCCMNKSDLGGWTRIVVEKPFGKDLESAEQLSSQIGELFDESQIYRIDHYLGKELVQNMLVLRFANRFFLPLWNRDNIENVQIVFREDFGTEGRGGYFDEYGIIRDIIQNHLLQVLCLVAMEKPISLKPEHIRDEKVKVLQSVVPISDDEVVLGQYEGYRDDDTVPNDSNTPTFATTILRIHNERWEGVPFILKAGKALNSRKAEIRIQFKDVPGDIFRCQKQGRNEFVIRLQPSEAMYMKLTVKQPGLDMNTVQSELDLSYGQRYQGVAIPEAYERLILDTIKGDQQHFVRRDELKVAWEIFTPLLHRIDKGEVKSIPYKPGSRGPKEADQLLEKAGYLQTHGYIWIPPTL
B5: AT1G22400 (protein, UniProt Q9SK82 1-489, looked up)
UDP-glycosyltransferase 85A1: MGSQIIHNSQKPHVVCVPYPAQGHINPMMRVAKLLHARGFYVTFVNTVYNHNRFLRSRGSNALDGLPSFRFESIADGLPETDMDATQDITALCESTMKNCLAPFRELLQRINAGDNVPPVSCIVSDGCMSFTLDVAEELGVPEVLFWTTSGCAFLAYLHFYLFIEKGLCPLKDESYLTKEYLEDTVIDFIPTMKNVKLKDIPSFIRTTNPDDVMISFALRETERAKRASAIILNTFDDLEHDVVHAMQSILPPVYSVGPLHLLANREIEEGSEIGMMSSNLWKEEMECLDWLDTKTQNSVIYINFGSITVLSVKQLVEFAWGLAGSGKEFLWVIRPDLVAGEEAMVPPDFLMETKDRSMLASWCPQEKVLSHPAIGGFLTHCGWNSILESLSCGVPMVCWPFFADQQMNCKFCCDEWDVGIEIGGDVKREEVEAVVRELMDGEKGKKMREKAVEWQRLAEKATEHKLGSSVMNFETVVSKFLLGQKSQD
B6: AT5G24520 (protein)
chain: MDNSAPDSLSRSETAVTYDSPYPLYAMAFSSLRSSSGHRIAVGSFLEDYNNRIDILSFDSDSMTVKPLPNLSFEHPYPPTKLMFSPPSLRRPSSGDLLASSGDFLRLWEINEDSSTVEPISVLNNSKTSEFCAPLTSFDWNDVEPKRLGTCSIDTTCTIWDIEKSVVETQLIAHDKEVHDIAWGEARVFASVSADGSVRIFDLRDKEHSTIIYESPQPDTPLLRLAWNKQDLRYMATILMDSNKVVILDIRSPTMPVAELERHQASVNAIAWAPQSCKHICSGGDDTQALIWELPTVAGPNGIDPMSVYSAGSEINQLQWSSSQPDWIGIAFANKMQLLRV
B7: AT3G58040 (protein, UniProt Q9M2P4 1-308, looked up)
E3 ubiquitin-protein ligase …: MAPGGSALKEVMESNSTGMDYEVKTAKVEVNNNKPTKPGSAGIGKYGIHSNNGVYELLECPVCTNLMYPPIHQCPNGHTLCSNCKLRVQNTCPTCRYELGNIRCLALEKVAESLEVPCRYQNLGCHDIFPYYSKLKHEQHCRFRPYTCPYAGSECSVTGDIPTLVVHLKDDHKVDMHDGCTFNHRYVKSNPHEVENATWMLTVFNCFGRQFCLHFEAFQLGMAPVYMAFLRFMGDENEAKKFSYSLEVGAHGRKLTWQGIPRSIRDSHRKVRDSQDGLIIPRNLALYFSGGDRQELKLRVTGRIWKEE
B8: AT2G41740 (protein, UniProt O81644 1-976, looked up)
Villin-2: MSTKVLDPAFQGAGQKPGTEIWRIENFEAVPVPKSEHGKFYMGDTYIVLQTTQNKGGAYLFDIHFWIGKDTSQDEAGTAAVKTVELDAVLGGRAVQHREIQGHESDKFLSYFKPCIIPLEGGVASGFKTVEEEVFETRLYTCKGKRAIRLKQVPFARSSLNHDDVFILDTEEKIYQFNGANSNIQERAKALEVVQYLKDKYHEGTCDVAIVDDGKLDTESDSGAFWVLFGGFAPIGRKVANDDDIVPESTPPKLYCITDGKMEPIDGDLSKSMLENTKCYLLDCGAEIYIWVGRVTQVDERKAASQSAEEFLASENRPKATHVTRVIQGYESHSFKSNFDSWPSGSATPGNEEGRGKVAALLKQQGVGLKGIAKSAPVNEDIPPLLESGGKLEVWYVNGKVKTPLPKEDIGKLYSGDCYLVLYTYHSGERKDEYFLSCWFGKKSIPEDQDTAIRLANTMSNSLKGRPVQGRIYEGKEPPQFVALFQPMVVLKGGLSSGYKSSMGESESTDETYTPESIALVQVSGTGVHNNKAVQVETVATSLNSYECFLLQSGTSMFLWHGNQSTHEQLELATKVAEFLKPGITLKHAKEGTESSTFWFALGGKQNFTSKKASSETIRDPHLFSFAFNRGKFQVEEIYNFAQDDLLTEDIYFLDTHAEVFVWVGQCVEPKEKQTVFEIGQKYIDLAGSLEGLHPKVPIYKINEGNEPCFFTTYFSWDATKAIVQGNSFQKKASLLFGTHHVVEDKSNGGNQGLRQRAEALAALNSAFNSSSNRPAYSSQDRLNESHDGPRQRAEALAALSSAFNSSSSSTKSPPPPRPVGTSQASQRAAAVAALSQVLVAENKKSPDTSPTRRSTSSNPADDIPLTEAKDEEEASEVAGLEAKEEEEVSPAADETEAKQETEEQGDSEIQPSGATFTYEQLRAKSENPVTGIDFKRREAYLSEEEFQSVFGIEKEAFNNLPRWKQDLLKKKFDLF
B9: AT1G63460 (protein, UniProt Q8LBU2 1-167, looked up)
Probable glutathione …: MATKEPESVYELSIEDAKGNNLALSQYKDKVLLIVNVASKCGMTNSNYTELNELYNRYKDKGLEILAFPCNQFGDEEPGTNDQITDFVCTRFKSEFPIFNKIEVNGENASPLYKFLKKGKWGIFGDDIQWNFAKFLVDKNGQAVQRYYPTTSPLTLEHDIKNLLNIS
B10: AT5G05000 (protein, UniProt Q38906 2-313, looked up)
Translocase of chloroplast …: AALQTLREWIGIQQFPPATQSKLLEILGKYKEEDVSSLTVLVMGKGGVGKSSTVNSVIGEKAAAVSTFQSEGLRPTLVSRTRSGFTLNIIDTPGLIEGGYVNDQAINIIKRFLLNMTIDVLLYVDRLDVYRVDDLDRQVVGAITDAFGKEIWKKSALVLTHAQFSPPDGLNYNHFVSKRSNALLKVIQTGAQLKKQDLQGFSIPVILVENSGRCHKNESDEKILPCGTSWIPNLFNKITEISFNGNKAIHVDKKLVEGPNPNERGKKLIPLMFAFQYLLVMKPLVRAIKSDVSRESKPAWELRDSGLASRRS
B11: AT3G07990 (protein, UniProt Q9SFB5 21-459, looked up)
Serine carboxypeptidase-like …: APSSYVEEQLRDRISNLPGQPSNVDFRQYSGYVTVHEERGRALFYWLVESPLARDPKSRPLVLWLNGGPGCSSVAYGAAEEIGPFRVGSDGKTLHSKLYAWNKLANLLFLESPAGVGFSYSNTTSDLYTTGDQRTAEDSYIFLVNWFERFPQYKHREFYIVGESYAGHFVPQLSKLVHERNKGFKNPAINLKGFMVGNAVTDDYHDYIGTFEYWWNHGLISDSTYHQLKTACYSVSSQHPSMQCMVALRNAELEQGNIDPYSIFTKPCNSTVALKRFLKGRYPWMSRAYDPCTERYSNVYFNRLDVQKALHANVTRLSYPWKACSDIVGSYWDDSPLSMLPIYKELITAGLKIWVFSGDTDAVVPITATRYSVDALKLATITNWYPWYDHGKVGGWSQVYKGLTLVTVAGAGHEVPLHRPRQAFILFRSFLESKPMPMT
B12: AT1G54100 (protein, UniProt Q9SYG7 1-508, looked up)
Aldehyde dehydrogenase family …: MGSANNEYEFLSEIGLTSHNLGSYVAGKWQANGPLVSTLNPANNQPIAQVVEASLEDYEQGLKACEEAAKIWMQVTAPKRGDIVRQIGDALRSKLDYLGRLLSLEMGKILAEGIGEVQEVIDMCDFAVGLSRQLNGSVIPSERPNHMMLEMWNPLGIVGVITAFNFPCAVLGWNACIALVCGNCVVWKGAPTTPLITIAMTKLVAEVLEKNNLPGAIFTAMCGGAEIGEAIAKDTRIPLVSFTGSSRVGSMVQQTVNARSGKTLLELSGNNAIIVMDDADIQLAARSVLFAAVGTAGQRCTTCRRLLLHESVYDKVLEQLLTSYKQVKIGNPLEKGTLLGPLHTPESKKNFEKGIEVIKSQGGKILTGGKAVEGEGNFVEPTIIEISADAAVVKEELFAPVLYVLKFKSFGEAVAINNSVPQGLSSSIFTRNPENIFRWIGPLGSDCGIVNVNIPTNGAEIGGAFGGEKATGGGREAGSDSWKQYMRRSTCTINYGNELPLAQGINFG

Test system: sim3-GFP
Assay: Quantitative LC-MS/MS of sim3-GFP interactome (SINC components)
Set-up: species or system Arabidopsis thaliana
Conditions: protein enrichment in the sim3-GFP interactome (SINC components), SA-treated samples versus mock

Row | Molecule | Normalized Fold Change: SA vs Mock
1 | B1 | 5.817
2 | B2 | 4111.7295
3 | B3 | 8.986
4 | B4 | 4.099
5 | B5 | 4.863
6 | B6 | 3.342
7 | B7 | 2.989
8 | B8 | 3.543
9 | B9 | 19.55
10 | B10 | 9.761
11 | B11 | 5807.184
12 | B12 | 2.006
